The source of these data is the supplement of paper PMC12819154, “High-throughput peptide-centric local stability assay extends protein–ligand identification to membrane proteins, tissues and bacteria” (Nature Structural & Molecular Biology, 2025).

Chains of the proteins cited; added tags and fusions are not shown. Lines headed by an entry give the natural chain unless they say otherwise; changes in a name come on top.
UniProt Q12797: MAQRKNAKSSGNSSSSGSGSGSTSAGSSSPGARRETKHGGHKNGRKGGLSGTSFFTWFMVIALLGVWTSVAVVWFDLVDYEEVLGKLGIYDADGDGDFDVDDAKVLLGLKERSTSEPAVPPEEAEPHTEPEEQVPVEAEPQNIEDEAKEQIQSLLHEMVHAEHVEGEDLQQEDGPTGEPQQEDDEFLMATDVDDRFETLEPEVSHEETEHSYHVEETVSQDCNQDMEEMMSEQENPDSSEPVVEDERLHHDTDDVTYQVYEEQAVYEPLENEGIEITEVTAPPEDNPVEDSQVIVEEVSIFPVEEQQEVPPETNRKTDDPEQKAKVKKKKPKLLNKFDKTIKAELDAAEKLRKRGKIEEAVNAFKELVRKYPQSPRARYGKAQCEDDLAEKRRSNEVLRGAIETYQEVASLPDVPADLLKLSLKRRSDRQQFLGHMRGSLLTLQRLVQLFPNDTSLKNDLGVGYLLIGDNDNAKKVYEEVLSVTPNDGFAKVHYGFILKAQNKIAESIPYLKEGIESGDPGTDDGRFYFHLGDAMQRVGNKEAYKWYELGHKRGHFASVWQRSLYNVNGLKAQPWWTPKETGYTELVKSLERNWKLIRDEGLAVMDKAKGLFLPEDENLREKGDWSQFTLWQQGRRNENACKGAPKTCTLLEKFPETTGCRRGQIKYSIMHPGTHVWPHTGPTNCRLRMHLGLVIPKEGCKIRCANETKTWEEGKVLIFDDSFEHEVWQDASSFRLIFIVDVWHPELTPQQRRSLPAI
UniProt Q12874: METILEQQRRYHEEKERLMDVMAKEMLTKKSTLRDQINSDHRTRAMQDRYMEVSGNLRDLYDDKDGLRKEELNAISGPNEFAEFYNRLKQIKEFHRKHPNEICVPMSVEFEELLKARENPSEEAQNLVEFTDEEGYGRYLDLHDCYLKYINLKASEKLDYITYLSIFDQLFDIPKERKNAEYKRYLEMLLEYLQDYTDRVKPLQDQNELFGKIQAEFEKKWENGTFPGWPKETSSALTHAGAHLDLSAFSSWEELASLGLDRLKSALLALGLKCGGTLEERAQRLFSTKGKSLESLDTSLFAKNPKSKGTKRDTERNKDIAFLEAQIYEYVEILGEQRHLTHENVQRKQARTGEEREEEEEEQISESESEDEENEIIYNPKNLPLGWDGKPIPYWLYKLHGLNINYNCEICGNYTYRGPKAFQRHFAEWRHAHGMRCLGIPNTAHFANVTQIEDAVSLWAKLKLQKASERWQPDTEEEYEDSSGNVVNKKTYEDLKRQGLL
UniProt Q00987, whole entry, looked up: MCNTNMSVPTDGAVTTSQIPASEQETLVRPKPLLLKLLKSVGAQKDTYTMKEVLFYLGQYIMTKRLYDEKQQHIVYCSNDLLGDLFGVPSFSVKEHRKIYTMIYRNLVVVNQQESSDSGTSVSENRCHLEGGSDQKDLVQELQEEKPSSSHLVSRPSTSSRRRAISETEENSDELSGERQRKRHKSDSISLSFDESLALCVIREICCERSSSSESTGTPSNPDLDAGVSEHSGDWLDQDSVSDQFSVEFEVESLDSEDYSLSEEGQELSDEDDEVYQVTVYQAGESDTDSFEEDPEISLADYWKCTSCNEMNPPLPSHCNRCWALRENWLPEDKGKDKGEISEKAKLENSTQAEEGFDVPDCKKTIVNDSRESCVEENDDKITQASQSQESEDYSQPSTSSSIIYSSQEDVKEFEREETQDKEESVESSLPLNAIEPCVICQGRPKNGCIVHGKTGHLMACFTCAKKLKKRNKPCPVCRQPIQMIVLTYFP
UniProt Q13011: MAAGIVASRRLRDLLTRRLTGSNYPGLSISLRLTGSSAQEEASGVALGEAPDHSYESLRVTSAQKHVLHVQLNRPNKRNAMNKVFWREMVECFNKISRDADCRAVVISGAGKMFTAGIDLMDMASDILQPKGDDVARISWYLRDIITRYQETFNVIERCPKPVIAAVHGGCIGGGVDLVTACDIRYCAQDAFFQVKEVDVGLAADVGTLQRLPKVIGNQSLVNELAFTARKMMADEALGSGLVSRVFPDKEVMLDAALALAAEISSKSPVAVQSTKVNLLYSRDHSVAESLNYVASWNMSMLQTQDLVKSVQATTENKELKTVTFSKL
UniProt Q01433: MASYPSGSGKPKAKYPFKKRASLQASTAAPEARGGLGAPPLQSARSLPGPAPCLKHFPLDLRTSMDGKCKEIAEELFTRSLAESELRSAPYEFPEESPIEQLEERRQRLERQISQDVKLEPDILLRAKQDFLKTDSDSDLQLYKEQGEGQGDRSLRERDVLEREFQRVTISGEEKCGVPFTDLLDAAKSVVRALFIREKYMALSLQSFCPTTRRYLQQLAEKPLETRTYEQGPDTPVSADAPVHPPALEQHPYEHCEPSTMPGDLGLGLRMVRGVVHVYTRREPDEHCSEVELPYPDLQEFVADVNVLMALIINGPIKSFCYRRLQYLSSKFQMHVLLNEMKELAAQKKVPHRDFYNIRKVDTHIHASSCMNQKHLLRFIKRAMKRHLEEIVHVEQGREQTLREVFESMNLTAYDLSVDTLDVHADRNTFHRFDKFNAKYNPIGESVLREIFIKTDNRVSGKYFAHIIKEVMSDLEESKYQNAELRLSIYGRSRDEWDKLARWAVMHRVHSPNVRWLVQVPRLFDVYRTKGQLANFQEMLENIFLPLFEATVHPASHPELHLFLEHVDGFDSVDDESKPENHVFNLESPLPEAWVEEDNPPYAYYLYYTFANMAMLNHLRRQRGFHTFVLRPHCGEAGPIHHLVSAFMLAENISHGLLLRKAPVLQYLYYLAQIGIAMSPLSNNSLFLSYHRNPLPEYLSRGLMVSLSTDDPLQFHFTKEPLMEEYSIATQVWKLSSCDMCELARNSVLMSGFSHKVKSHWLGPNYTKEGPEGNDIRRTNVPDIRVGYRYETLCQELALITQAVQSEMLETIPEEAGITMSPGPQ
UniProt Q04741: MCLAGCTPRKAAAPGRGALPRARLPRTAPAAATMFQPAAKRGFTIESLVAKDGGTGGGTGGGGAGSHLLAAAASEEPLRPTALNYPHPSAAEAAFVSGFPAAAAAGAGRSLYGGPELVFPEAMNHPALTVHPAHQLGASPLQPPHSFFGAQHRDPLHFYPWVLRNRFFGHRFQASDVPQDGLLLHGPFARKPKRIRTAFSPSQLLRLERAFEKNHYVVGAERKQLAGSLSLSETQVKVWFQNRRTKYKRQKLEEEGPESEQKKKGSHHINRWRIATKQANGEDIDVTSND
UniProt Q03169: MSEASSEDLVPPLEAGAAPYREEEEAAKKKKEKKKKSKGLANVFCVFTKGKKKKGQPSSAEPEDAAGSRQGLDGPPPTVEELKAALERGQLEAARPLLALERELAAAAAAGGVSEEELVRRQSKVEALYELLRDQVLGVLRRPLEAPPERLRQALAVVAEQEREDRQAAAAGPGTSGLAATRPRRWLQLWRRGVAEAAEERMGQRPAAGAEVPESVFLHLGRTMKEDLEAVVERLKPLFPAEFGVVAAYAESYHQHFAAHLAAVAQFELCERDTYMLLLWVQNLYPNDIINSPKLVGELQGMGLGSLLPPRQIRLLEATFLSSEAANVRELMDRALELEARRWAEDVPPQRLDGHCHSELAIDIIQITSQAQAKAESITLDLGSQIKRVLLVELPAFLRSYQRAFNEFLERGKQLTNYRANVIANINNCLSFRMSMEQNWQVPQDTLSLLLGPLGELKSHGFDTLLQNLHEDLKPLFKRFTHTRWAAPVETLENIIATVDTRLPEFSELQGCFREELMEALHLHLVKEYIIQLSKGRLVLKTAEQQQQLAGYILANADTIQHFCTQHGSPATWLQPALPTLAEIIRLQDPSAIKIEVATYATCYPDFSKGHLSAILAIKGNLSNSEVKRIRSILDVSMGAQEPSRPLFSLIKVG
UniProt Q12905: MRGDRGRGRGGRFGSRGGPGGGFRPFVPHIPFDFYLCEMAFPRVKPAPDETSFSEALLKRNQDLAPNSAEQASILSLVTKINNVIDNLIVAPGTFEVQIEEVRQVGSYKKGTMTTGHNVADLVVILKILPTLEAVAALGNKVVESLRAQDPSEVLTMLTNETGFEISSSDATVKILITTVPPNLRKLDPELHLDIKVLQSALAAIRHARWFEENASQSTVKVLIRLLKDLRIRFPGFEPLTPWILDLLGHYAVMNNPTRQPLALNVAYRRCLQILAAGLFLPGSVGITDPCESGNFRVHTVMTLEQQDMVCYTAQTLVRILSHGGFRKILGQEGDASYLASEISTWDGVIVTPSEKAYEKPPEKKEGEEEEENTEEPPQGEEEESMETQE

The list shows a part of the results. Most values lie at the level of the controls, where differences are scatter.

Compound in this assay: Cc1nc(Nc2ncc(C(=O)Nc3c(C)cccc3Cl)s2)cc(N2CCN(CCO)CC2)n1 [dasatinib]
Briefly: log2 fold change of tryptic peptide abundance, ligand vs vehicle (limited proteolysis) (log2 ratio); higher = more trypsin-susceptible (destabilized). The following applies: ligand concentration: 5 uM; sample: K562 cleared lysate.
With “ASPH (peptide sequence: GKIEEAVNAFK, peptide start residue: 355) (UniProt Q12797)”, the log2 fold change came out at 0.268.

On to “SF3A3 (peptide sequence: YHEEKER, peptide start residue: 11) (UniProt Q12874)”, for which the log2 fold change is -0.202.

With “MDM2 (peptide sequence: AKLENSTQAEEGFDVPDCKK, peptide start residue: 345) (UniProt Q00987)”, the log2 fold change is 0.373.

For the target “ECH1 (peptide sequence: SVQATTENK, peptide start residue: 310) (UniProt Q13011)”, the log2 fold change stood at 0.359.

For “AMPD2 (peptide sequence: HFPLDLR, peptide start residue: 110) (UniProt Q01433)”, the log2 fold change was -0.149.

On to “UniProt Q04741 (peptide sequence: NHYVVGAERK, peptide start residue: 214)”, for which the log2 fold change is -0.142.

For the target “TNFAIP2 (peptide sequence: GQLEAARPLLALER, peptide start residue: 89) (UniProt Q03169)”, the log2 fold change worked out at 0.388.

Consider “LAMTOR4 (peptide sequence: LSVVFGEHTLLVTVSGQR, peptide start residue: 66) (UniProt Q0VGL1)”, for which the log2 fold change is -0.202.

For the target “UniProt Q12905 (peptide sequence: AYEKPPEK, peptide start residue: 357)”, the log2 fold change is -0.621.
